Measurements reported in PubChem BioAssay AID1224830 (NIAID, 2016).

Screen: 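Host factors that control LPS-induced TNF expression in human macrophages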 (primary screen)
Cells: human THP-1 monocytic leukaemia cells, TNF dual-luciferase reporter clone, PMA-differentiated to macrophage-like cells
Knock-down reagent: siRNA pool against human genes, 50 nM
Time to read-out: LPS for 4 h, given about 3 days after siRNA transfection
Treatment: bacterial LPS (TLR4 ligand), 10 ng/ml
Measured: 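TNF firefly reporter luminescence divided by renilla, normalised to the plate median, then turned into a robust z-score for each replicate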
Reading the numbers: TNF reporter robust z-score: higher = stronger TNF reporter response to LPS
Hit rule: 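Each well counts as active if its z-score is over 2.8 or under -1.5; controls are left without a call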
In all, the deposit lists about 18,000 reagents; this is a random part of them. About 2,900 of all reagents (16%) count as active. 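Calls are made per well; low scores hint the gene aids the LPS response, high scores that it dampens it.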 Repeated entries: four replicate wells of each siRNA pool.

Gene | PubChem SID | TNF reporter robust z-score | Outcome
MEN1 | SID315449942 | -0.29 | inactive
MEN1 | SID315449942 | -0.41 | inactive
MEN1 | SID315449942 | -0.94 | inactive
MEN1 | SID315449942 | -0.31 | inactive
MICU3 | SID315463895 | 1.5 | inactive
MICU3 | SID315463895 | 1.3 | inactive
MICU3 | SID315463895 | 1.54 | inactive
MICU3 | SID315463895 | 2.36 | inactive
TRIM64B | SID315465070 | -1.66 | active
TRIM64B | SID315465070 | -1.05 | inactive
TRIM64B | SID315465070 | 0.18 | inactive
TRIM64B | SID315465070 | 0.98 | inactive
CA5A | SID315447646 | 0.17 | inactive
CA5A | SID315447646 | 1.34 | inactive
CA5A | SID315447646 | 0.45 | inactive
CA5A | SID315447646 | 0.61 | inactive
ZNF547 | SID315463755 | -0.19 | inactive
ZNF547 | SID315463755 | 1.14 | inactive
ZNF547 | SID315463755 | -0.63 | inactive
ZNF547 | SID315463755 | 1.53 | inactive
MRPL44 | SID315459079 | -0.45 | inactive
MRPL44 | SID315459079 | -0.05 | inactive
MRPL44 | SID315459079 | 0.2 | inactive
MRPL44 | SID315459079 | -0.98 | inactive
ZNF141 | SID315452249 | -0.89 | inactive
ZNF141 | SID315452249 | -2.27 | active
ZNF141 | SID315452249 | -1.16 | inactive
ZNF141 | SID315452249 | -0.87 | inactive
TMEM214 | SID315457221 | 1.64 | inactive
TMEM214 | SID315457221 | -0.06 | inactive
TMEM214 | SID315457221 | 0.1 | inactive
TMEM214 | SID315457221 | -0.14 | inactive
H2BC10 | SID315452497 | 2.27 | inactive
H2BC10 | SID315452497 | 0.98 | inactive
H2BC10 | SID315452497 | 1.75 | inactive
H2BC10 | SID315452497 | 2.85 | active
RASAL3 | SID315459047 | -0.52 | inactive
RASAL3 | SID315459047 | -0.03 | inactive
RASAL3 | SID315459047 | 0.27 | inactive
RASAL3 | SID315459047 | -0.01 | inactive
FAM217A | SID315463357 | -0.23 | inactive
FAM217A | SID315463357 | -0.47 | inactive
FAM217A | SID315463357 | -0.37 | inactive
FAM217A | SID315463357 | 0.88 | inactive
PYGO1 | SID315455672 | -0.07 | inactive
PYGO1 | SID315455672 | -0.24 | inactive
PYGO1 | SID315455672 | -0.34 | inactive
PPME1 | SID315456696 | 0.15 | inactive
PPME1 | SID315456696 | -0.44 | inactive
PPME1 | SID315456696 | -0.53 | inactive
PPME1 | SID315456696 | 0.16 | inactive
FBL | SID315448563 | -0.23 | inactive
FBL | SID315448563 | 1.03 | inactive
FBL | SID315448563 | 0.1 | inactive
FBL | SID315448563 | 0.88 | inactive
HNRNPDL | SID315453730 | -0.11 | inactive
HNRNPDL | SID315453730 | 0.63 | inactive
HNRNPDL | SID315453730 | -0.24 | inactive
HNRNPDL | SID315453730 | -0.7 | inactive
CREB5 | SID315453404 | -0.19 | inactive
CREB5 | SID315453404 | -1.01 | inactive
CREB5 | SID315453404 | -0.24 | inactive
CREB5 | SID315453404 | -0.96 | inactive
PALM2AKAP2 | SID315454694 | 2.99 | active
PALM2AKAP2 | SID315454694 | 3.06 | active
PALM2AKAP2 | SID315454694 | 3.34 | active
PALM2AKAP2 | SID315454694 | 3.78 | active
PALM2AKAP2 | SID315461218 | -0.04 | inactive
PALM2AKAP2 | SID315461218 | 0.84 | inactive
PALM2AKAP2 | SID315461218 | 0.25 | inactive
PALM2AKAP2 | SID315461218 | 0.07 | inactive
PALM2AKAP2 | SID315464985 | -0.15 | inactive
PALM2AKAP2 | SID315464985 | -0.64 | inactive
PALM2AKAP2 | SID315464985 | -0.11 | inactive
PALM2AKAP2 | SID315464985 | 0.03 | inactive
GSC | SID315462237 | -0.65 | inactive
GSC | SID315462237 | 1.01 | inactive
GSC | SID315462237 | 0.48 | inactive
GSC | SID315462237 | 0.49 | inactive
CARD14 | SID315459209 | 1.25 | inactive
CARD14 | SID315459209 | -0.38 | inactive
CARD14 | SID315459209 | 1.22 | inactive
CARD14 | SID315459209 | 1.62 | inactive
MAGEA4 | SID315449855 | -0.14 | inactive
MAGEA4 | SID315449855 | -0.01 | inactive
MAGEA4 | SID315449855 | -0.26 | inactive
MAGEA4 | SID315449855 | 0.24 | inactive
FARSA | SID315448636 | 1.6 | inactive
FARSA | SID315448636 | 0.57 | inactive
FARSA | SID315448636 | 0.68 | inactive
FARSA | SID315448636 | 1.33 | inactive
POMGNT2 | SID315460551 | -1.95 | active
POMGNT2 | SID315460551 | -0.59 | inactive
POMGNT2 | SID315460551 | -1.3 | inactive
POMGNT2 | SID315460551 | -1.32 | inactive
CLTC | SID315447978 | -0.83 | inactive
CLTC | SID315447978 | -0.77 | inactive
CLTC | SID315447978 | -0.89 | inactive
CLTC | SID315447978 | -0.09 | inactive
BTBD7 | SID315457804 | -1 | inactive
BTBD7 | SID315457804 | -0.92 | inactive
BTBD7 | SID315457804 | -1.01 | inactive
BTBD7 | SID315457804 | -0.64 | inactive
SHPK | SID315455412 | 0.1 | inactive
SHPK | SID315455412 | 0.27 | inactive
SHPK | SID315455412 | 1.54 | inactive
SHPK | SID315455412 | 1.9 | inactive
POF1B | SID315459606 | -0.78 | inactive
POF1B | SID315459606 | -0.75 | inactive
POF1B | SID315459606 | -1.04 | inactive
POF1B | SID315459606 | -0.99 | inactive
SCIMP | SID315464476 | -0.66 | inactive
SCIMP | SID315464476 | 1.26 | inactive
SCIMP | SID315464476 | 1.28 | inactive
SCIMP | SID315464476 | 0.22 | inactive
PGAP3 | SID315461066 | -0.76 | inactive
PGAP3 | SID315461066 | 0.27 | inactive
PGAP3 | SID315461066 | 0.23 | inactive
PGAP3 | SID315461066 | -0.23 | inactive
EIF4B | SID315448474 | -1.07 | inactive
EIF4B | SID315448474 | -0.78 | inactive
EIF4B | SID315448474 | -0.83 | inactive
EIF4B | SID315448474 | -0.8 | inactive
CARD6 | SID315460455 | -0.05 | inactive
CARD6 | SID315460455 | -0.65 | inactive
CARD6 | SID315460455 | -0.27 | inactive
CARD6 | SID315460455 | 0.69 | inactive
LHFPL3 | SID315464377 | -0.16 | inactive
LHFPL3 | SID315464377 | 0.58 | inactive
LHFPL3 | SID315464377 | 0.74 | inactive
LHFPL3 | SID315464377 | 0.08 | inactive
PDE8A | SID315450484 | 0.06 | inactive
PDE8A | SID315450484 | 3.11 | active
PDE8A | SID315450484 | 0.25 | inactive
PDE8A | SID315450484 | 2.91 | active
MDFI | SID315449918 | 0.24 | inactive
MDFI | SID315449918 | 0.57 | inactive
MDFI | SID315449918 | 2.09 | inactive
MDFI | SID315449918 | 1.72 | inactive
EPB41L4B | SID315457084 | 0.13 | inactive
EPB41L4B | SID315457084 | 0.52 | inactive
EPB41L4B | SID315457084 | 0.47 | inactive
EPB41L4B | SID315457084 | 0.85 | inactive
